Measurements from article PMC9696794 (International Journal of Molecular Sciences, 2022).

Test: general procedure: Fmoc solid-phase peptide synthesis; Rink Amide ChemMatrix resin (loading 0.50 mmol/g); HCTU/DIEA
Conditions: whole synthesis, UPLC-UV

Substance | final HPLC purity [%]
C8- CGKKPGGWKC KL-NH2 | 99.16
C8- CGKKWWGWKC KL-NH2 | 98.04
C8- CGRRWGWWRC RL-NH2 | 95.04
C10- CGKKPGGWKC KL-NH2 | 95.87
C10- CGKKWWGWKC KL-NH2 | 96.40
C10- CGRRWGWWRC RL-NH2 | 95.53
C12- CGKKPGGWKC KL-NH2 | 96.01
C12- CGKKWWGWKC KL-NH2 | 96.38
C12- CGRRWGWWRC RL-NH2 | 95.16

Same assay, conditions: whole synthesis, UPLC-UV, one disulfide bridge, sequence written open

Substance | final HPLC purity [%]
(CGKKPGGWKC)KL-NH2 | 100.00
(CGKKPWWWKC)KL-NH2 | 95.79
(CGKKWGWWKC)KL-NH2 | 96.43
(CGKKWWGWKC)KL-NH2 | 96.53
(CGRRPWWWRC)RL-NH2 | 95.61
(CGRRWGWWRC)RL-NH2 | 90.59
(CGRRWWGWRC)RL-NH2 | 95.74
C8 -(CGKKPGGWKC)KL-NH2 | 92.83
C8- (CGKKWWGWKC)KL-NH2 | 96.32
C8- (CGRRWGWWRC)RL-NH2 | 94.15
C10 -(CGKKPGGWKC)KL-NH2 | 91.51
C10- (CGKKWWGWKC)KL-NH2 | 91.79
C10- (CGRRWGWWRC)RL-NH2 | 93.65
C12 -(CGKKPGGWKC)KL-NH2 | 93.36
C12- (CGKKWWGWKC)KL-NH2 | 95.32
C12- (CGRRWGWWRC)RL-NH2 | 92.52
